Experimental findings from the supplement of paper PMC12067093, “Discovery and optimisation of a covalent ligand for TRIM25 and its application to targeted protein ubiquitination” (Chemical Science, 2025) are described below.

The chains behind the UniProt entries cited, without tags or fusion partners. Where a name states a change or a piece, a line headed by the entry shows the natural chain unless it says otherwise.
UniProt P42285: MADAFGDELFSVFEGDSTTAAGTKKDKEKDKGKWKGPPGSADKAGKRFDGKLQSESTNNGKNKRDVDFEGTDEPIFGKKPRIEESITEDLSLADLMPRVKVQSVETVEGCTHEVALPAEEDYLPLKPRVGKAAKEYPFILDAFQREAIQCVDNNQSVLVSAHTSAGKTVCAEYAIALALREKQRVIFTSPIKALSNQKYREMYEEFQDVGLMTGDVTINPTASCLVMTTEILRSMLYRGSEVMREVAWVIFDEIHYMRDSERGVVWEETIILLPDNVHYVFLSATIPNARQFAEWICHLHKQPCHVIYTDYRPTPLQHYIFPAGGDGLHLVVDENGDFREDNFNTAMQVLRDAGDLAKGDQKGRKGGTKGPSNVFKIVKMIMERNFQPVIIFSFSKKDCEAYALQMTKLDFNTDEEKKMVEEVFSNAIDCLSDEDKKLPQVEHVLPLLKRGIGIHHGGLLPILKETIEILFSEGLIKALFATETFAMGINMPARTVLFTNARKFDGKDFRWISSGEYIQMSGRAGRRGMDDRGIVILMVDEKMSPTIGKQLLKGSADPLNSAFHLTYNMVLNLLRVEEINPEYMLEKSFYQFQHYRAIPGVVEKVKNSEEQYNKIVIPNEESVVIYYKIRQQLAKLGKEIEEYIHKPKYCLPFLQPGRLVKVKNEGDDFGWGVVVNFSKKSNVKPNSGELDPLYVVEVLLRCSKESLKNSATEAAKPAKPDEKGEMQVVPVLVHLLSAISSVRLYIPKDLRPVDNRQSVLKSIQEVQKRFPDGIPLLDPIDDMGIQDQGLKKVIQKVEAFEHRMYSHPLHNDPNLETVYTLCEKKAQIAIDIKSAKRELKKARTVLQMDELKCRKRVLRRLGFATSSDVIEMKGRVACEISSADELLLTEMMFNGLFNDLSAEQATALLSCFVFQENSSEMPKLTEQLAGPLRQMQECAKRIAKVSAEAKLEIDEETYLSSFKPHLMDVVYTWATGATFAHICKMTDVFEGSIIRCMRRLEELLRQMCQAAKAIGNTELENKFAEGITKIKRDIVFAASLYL
UniProt O75592: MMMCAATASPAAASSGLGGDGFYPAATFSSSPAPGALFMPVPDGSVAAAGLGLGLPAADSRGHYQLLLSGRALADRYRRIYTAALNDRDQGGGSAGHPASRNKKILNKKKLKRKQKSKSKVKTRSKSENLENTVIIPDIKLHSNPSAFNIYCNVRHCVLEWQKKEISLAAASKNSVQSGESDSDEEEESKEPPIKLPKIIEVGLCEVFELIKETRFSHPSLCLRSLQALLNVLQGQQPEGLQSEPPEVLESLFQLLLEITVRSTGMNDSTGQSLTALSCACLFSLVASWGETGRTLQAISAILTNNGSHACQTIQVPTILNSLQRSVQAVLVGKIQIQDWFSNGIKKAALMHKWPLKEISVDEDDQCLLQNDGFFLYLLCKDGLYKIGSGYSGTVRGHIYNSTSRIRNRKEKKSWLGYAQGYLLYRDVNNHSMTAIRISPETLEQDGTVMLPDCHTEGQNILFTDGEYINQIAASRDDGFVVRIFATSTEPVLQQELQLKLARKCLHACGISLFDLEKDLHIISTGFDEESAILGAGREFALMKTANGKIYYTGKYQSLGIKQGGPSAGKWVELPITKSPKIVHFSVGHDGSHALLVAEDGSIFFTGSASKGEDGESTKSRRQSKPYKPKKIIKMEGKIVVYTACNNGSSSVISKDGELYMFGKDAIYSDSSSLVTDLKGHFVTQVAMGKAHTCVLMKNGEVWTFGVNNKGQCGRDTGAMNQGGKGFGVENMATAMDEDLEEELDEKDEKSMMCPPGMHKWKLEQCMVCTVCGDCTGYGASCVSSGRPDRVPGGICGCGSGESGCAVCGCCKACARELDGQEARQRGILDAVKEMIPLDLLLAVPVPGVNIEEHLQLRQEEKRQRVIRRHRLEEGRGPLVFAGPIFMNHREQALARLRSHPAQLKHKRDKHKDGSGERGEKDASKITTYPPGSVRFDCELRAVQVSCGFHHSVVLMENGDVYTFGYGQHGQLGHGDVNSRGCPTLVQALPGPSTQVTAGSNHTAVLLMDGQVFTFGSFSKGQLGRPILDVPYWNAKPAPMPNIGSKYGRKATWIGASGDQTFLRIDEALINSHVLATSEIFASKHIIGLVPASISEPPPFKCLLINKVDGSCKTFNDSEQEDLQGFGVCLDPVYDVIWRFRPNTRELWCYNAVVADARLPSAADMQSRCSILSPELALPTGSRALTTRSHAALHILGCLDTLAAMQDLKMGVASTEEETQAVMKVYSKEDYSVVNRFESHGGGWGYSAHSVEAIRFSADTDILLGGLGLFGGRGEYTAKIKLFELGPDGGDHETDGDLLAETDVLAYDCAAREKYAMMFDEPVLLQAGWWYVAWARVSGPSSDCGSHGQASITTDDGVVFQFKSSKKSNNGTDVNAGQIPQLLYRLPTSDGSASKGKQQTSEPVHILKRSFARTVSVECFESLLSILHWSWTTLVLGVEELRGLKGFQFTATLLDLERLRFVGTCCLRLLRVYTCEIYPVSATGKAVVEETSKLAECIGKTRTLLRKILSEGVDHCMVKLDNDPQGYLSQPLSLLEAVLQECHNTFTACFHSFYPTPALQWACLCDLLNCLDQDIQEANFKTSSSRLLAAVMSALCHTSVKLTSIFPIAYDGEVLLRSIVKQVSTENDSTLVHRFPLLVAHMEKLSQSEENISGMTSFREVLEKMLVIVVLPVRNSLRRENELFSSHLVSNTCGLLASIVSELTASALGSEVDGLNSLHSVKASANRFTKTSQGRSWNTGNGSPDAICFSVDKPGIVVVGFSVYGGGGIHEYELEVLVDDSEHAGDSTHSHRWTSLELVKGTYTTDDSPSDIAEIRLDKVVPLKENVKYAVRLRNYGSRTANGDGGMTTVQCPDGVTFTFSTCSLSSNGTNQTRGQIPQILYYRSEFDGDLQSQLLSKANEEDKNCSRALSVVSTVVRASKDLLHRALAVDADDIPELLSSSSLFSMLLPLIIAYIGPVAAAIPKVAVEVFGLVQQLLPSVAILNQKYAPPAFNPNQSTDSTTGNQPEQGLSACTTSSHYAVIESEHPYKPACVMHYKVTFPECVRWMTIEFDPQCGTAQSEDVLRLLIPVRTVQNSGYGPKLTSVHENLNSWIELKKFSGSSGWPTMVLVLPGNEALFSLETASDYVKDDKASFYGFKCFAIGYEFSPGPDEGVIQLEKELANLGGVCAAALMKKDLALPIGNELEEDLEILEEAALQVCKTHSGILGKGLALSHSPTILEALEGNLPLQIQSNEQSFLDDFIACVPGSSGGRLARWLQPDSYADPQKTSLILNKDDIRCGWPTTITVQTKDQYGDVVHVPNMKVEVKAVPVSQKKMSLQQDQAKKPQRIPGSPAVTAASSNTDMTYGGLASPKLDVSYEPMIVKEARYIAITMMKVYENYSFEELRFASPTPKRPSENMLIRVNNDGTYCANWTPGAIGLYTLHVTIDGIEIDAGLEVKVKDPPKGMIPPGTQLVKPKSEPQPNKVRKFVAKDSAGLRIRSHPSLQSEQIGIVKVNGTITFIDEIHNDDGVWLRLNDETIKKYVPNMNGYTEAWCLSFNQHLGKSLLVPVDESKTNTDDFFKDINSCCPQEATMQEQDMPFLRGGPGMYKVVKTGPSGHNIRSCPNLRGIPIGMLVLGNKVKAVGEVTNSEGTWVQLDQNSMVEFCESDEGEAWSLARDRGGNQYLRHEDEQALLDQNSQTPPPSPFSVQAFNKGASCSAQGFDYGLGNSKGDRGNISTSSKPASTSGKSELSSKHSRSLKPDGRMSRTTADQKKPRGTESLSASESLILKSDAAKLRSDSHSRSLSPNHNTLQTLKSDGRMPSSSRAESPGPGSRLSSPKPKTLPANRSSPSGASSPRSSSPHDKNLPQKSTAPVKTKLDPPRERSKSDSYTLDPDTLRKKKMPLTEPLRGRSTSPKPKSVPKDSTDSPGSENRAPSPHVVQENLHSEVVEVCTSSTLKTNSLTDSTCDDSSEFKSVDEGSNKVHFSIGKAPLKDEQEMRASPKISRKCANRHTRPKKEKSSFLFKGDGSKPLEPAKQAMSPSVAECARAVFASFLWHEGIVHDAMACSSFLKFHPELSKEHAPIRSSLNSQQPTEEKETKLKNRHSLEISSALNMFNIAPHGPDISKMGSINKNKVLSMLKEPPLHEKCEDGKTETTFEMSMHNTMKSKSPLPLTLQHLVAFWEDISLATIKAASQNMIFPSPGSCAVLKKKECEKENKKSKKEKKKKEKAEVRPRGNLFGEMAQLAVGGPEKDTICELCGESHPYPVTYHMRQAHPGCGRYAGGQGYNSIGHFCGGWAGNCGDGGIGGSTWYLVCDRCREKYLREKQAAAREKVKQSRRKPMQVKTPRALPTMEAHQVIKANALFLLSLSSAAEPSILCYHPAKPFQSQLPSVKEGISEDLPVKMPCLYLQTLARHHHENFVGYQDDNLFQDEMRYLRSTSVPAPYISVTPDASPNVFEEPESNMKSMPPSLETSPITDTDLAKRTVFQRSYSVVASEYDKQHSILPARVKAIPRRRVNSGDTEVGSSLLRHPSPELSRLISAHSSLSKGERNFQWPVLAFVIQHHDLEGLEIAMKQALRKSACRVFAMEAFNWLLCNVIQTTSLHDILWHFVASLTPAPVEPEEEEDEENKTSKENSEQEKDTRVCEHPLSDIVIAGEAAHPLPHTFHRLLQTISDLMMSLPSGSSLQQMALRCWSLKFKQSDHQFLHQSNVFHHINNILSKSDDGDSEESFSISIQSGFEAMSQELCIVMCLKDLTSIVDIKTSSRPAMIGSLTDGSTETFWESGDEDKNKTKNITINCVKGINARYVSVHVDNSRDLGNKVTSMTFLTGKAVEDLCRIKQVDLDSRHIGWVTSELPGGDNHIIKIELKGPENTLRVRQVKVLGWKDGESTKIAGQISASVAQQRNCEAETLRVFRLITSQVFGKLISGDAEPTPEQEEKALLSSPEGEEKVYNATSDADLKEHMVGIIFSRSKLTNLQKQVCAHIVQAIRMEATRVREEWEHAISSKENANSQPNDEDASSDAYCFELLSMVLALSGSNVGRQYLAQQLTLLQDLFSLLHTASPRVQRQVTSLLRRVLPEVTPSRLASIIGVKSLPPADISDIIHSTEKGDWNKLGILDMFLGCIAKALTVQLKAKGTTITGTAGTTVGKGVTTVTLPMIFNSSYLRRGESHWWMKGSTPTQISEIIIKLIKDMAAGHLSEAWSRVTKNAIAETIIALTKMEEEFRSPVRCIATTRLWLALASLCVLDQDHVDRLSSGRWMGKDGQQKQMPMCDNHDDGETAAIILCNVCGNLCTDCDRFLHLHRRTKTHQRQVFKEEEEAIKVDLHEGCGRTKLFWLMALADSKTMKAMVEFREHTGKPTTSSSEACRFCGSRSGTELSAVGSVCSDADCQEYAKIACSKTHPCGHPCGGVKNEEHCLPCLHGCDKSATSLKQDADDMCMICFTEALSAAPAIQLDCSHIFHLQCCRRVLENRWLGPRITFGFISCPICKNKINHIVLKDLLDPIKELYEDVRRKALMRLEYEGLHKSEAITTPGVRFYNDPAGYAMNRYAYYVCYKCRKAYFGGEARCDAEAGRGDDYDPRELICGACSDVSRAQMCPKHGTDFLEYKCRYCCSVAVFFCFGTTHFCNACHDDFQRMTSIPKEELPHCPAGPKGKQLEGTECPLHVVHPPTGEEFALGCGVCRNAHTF
UniProt Q9Y217: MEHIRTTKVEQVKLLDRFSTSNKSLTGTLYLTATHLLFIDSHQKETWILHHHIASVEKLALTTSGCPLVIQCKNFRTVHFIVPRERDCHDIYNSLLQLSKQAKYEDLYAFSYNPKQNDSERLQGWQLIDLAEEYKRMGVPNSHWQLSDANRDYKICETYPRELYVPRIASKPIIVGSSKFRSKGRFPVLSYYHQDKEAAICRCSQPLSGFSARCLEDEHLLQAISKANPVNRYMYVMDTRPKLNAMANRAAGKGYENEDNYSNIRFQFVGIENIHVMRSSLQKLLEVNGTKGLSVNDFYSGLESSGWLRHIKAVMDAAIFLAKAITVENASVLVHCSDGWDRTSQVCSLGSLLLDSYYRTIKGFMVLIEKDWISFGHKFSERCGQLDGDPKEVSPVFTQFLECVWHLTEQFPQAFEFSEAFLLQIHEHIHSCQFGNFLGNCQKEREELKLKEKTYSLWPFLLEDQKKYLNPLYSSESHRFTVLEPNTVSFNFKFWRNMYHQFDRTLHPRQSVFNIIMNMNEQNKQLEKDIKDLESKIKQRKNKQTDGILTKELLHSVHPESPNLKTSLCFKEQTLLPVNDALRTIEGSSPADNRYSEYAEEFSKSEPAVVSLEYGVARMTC

Compound in this experiment: Cc1cc(ccc1-c1ccccc1)C(=O)N1CCCN(CC1)C(=O)CCl [compound 10]
Kind of experiment: probe-labelled cysteine peptide fold change vs DMSO (competition) (log2 fold change); higher = less target engagement (more negative = stronger competition). The settings on record: THP-1, incubation time: 4 h.

Some of the results follow.
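Also: competitive profiling in live THP-1 cells: cysteine peptides tagged with an iodoacetamide desthiobiotin (IA-DTB) probe, intensity after compound treatment relative to DMSO-treated cells.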

On to “MRPS28_Q9Y2Q9_124_FHCVCR (UniProt Q9Y2Q9)”, for which the “probe-labelled cysteine peptide fold change” value is, setting by setting: (10 µM) 0.163; (50 µM) -0.266.
Taken in the same sequence, the figures for “MSH3_P20585_833_AVHHLATVDCIFSLAK (UniProt P20585)” were 0.0467 and 0.0422.
Take “MVD_P53602_267_DSNQFHATCLDTFPPISYLNAISWR (UniProt P53602)”: the “probe-labelled cysteine peptide fold change” value reads like this: (10 µM) -0.508; (50 µM) 0.125.
Taken in the same sequence, the figures for “MTOR_P42345_1999_NMCEHSNTLVQQAMMVSEELIR (UniProt P42345)” were 0.0665 and -0.189.
As for “MTREX_P42285_399_KDCEAYALQMTK (UniProt P42285)”, the “probe-labelled cysteine peptide fold change” value reads like this: (10 µM) -0.127; (50 µM) 0.145.
As to “MTREX_P42285_297_QFAEWICHLHK (UniProt P42285)”, the “probe-labelled cysteine peptide fold change” value by setting is: (10 µM) 0.083; (50 µM) 0.19.
Take “MYCBP2_O75592_1198_SHAALHILGCLDTLAAMQDLK (UniProt O75592)”: the “probe-labelled cysteine peptide fold change” value (10 µM) was determined as 0.12 and the “probe-labelled cysteine peptide fold change” value (50 µM) stood at 0.000495.
The like results for “MSH6_P52701_108_MEGYPWWPCLVYNHPFDGTFIR (UniProt P52701)” were, in that order, 0.184 and 0.261.
Taken in the same sequence, the figures for “MTHFD1L_Q6UB35_906_IDRYTQQGFGNLPICMAK (UniProt Q6UB35)” were -0.017 and -0.37.
Taken in the same sequence, the figures for “MSH2_P43246_641_HACVEVQDEIAFIPNDVYFEK (UniProt P43246)” were -0.0635 and 0.293.
Turning to “MSL3P1_P0C860_127_LVQLPCHTNIITILESYVK (UniProt P0C860)”, the “probe-labelled cysteine peptide fold change” value came out at 0.252 (10 µM) and 0.301 (50 µM).
Turning to “MYCBP2_O75592_4318_QVFKEEEEAIKVDLHEGCGR (UniProt O75592)”, the “probe-labelled cysteine peptide fold change” value is, setting by setting: (10 µM) -0.166; (50 µM) -0.439.
Consider “MTMR6_Q9Y217_214_CLEDEHLLQAISK (UniProt Q9Y217)”, for which the “probe-labelled cysteine peptide fold change” value (10 µM) was -0.103 and the “probe-labelled cysteine peptide fold change” value (50 µM) was -0.217.
“MTR_Q99707_798_NIVGVVLGCNNFR (UniProt Q99707)”: the “probe-labelled cysteine peptide fold change” value runs as follows: (10 µM) 0.00546; (50 µM) -0.26.
